Measurements: patent US8343513B2, “Prevention of molecular weight reduction of the polymer, impurity formation and gelling in polymer compositions” (Oakwood Laboratories, LLC, priority 2003, dated 2013)
Not every detail of the peptide structures is certain; ends, links or a residue may be inferred. Where a SMILES comes first, the peptide text is derived from it. [ ]: non-standard residue; d: D form. The star is where a group is joined. dPhe(4-Cl) = N[C@H](Cc1ccc(Cl)cc1)C(=O)O; Nicotinoyl(6-NH2) = Nc1ccc(C(=O)*)cn1; d2Nal = N[C@H](Cc1ccc2ccccc2c1)C(=O)O; Lys(iPr) = CC(C)NCCCC[C@H](N)C(=O)O; d3Pal = N[C@H](Cc1cccnc1)C(=O)O; Picolinoyl = O=C(c1ccccn1)*; dOrn = NCCC[C@@H](N)C(=O)O

Tested on: serum testosterone
Test: Testosterone suppression in rats by orntide microspheres
Assay type: in vivo
Conditions: provided as sustained release formulation, established previously

## CC(=O)N[C@H](Cc1ccc2ccccc2c1)C(=O)N[C@H](Cc1ccc(Cl)cc1)C(=O)N[C@H](Cc1cccnc1)C(=O)N[C@@H](CO)C(=O)N[C@@H](CCCCNC(=O)c1ccccn1)C(=O)N[C@H](CCCNC(=O)c1ccc(N)nc1)C(=O)N[C@@H](CC(C)C)C(=O)N[C@@H](CCCCNC(C)C)C(=O)N1CCC[C@H]1C(=O)N[C@H](C)C(N)=O [orntide] (Ac-[d2Nal][dPhe(4-Cl)][d3Pal]SK(Picolinoyl)[dOrn](Nicotinoyl(6-NH2))L[Lys(iPr)]P[dA]-NH2)
  effective dose for chemical castration (testosterone below 0.5 ng/mL): 2.25 mg per month
